Literature values as cited in PMC6831628, “Steady-state activation of the high-affinity isoform of the α4β2δ GABAA receptor” (Scientific Reports, 2019).
Like-named read-outs stand apart in the source and are kept apart here.

Target: receptors resulting from the expression of α4, β (β2 or β3), and δ subunits
Conditions: read-out: GABA EC50, cited from earlier work

For `NCCCC(=O)O` [GABA], the EC50 (high-affinity type) is given as < 100 nM and the EC50 (low-affinity type) is given as > 1000 nM.
